We go through 107 sequences from PubChem BioAssay AID1508600 (Functional Genomics Laboratory (NCATS/FGL), 2020).

Hit rate of the full screen: of about 53,000 sequences, about 3,700 (7%) were called active.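 The calls were made as follows: active = gene knockdowns whose robust z-score for IL-1 alpha signal is at least 2 or at most -2, so actives lie on both sides; inactive = the rest.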 The list shows a part of the results.

A short description of this experiment: Components of the Cytosolic LPS Sensing Pathway: Gene Identification via Genome-wide siRNA Screen.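 Also: robust z of the log signal after scaling to non-targeting control siRNA wells of the plate.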 The conditions noted are these: RAW264.7 macrophages, IL-1a HTRF, actives lie on both sides, screened at 100 nM (by protocol), cells primed 5 h with Pam3CSK4 first. Summed up:
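Mouse macrophage line RAW264.7 is transfected with siRNA (100 nM final), grown 48h, primed with TLR ligand Pam3CSK4 5 h and given intracellular LipidA 24 h. IL-1a in supernatant is read by HTRF and viability by luminescence.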
On the technique in general: TR-FRET usually uses a lanthanide donor and a delayed reading to cut background.
Regarding GGAACAUGUUUGAGUUUAATT against Ints11, the z-score is inactive: -0.409.
On to GGAAAUGAUGAGCAAGUUATT against Dcaf5, for which the z-score was inactive: -1.18.
With GGUCCAAGAAGACAAUGCUTT against Cga the figure was inactive: -0.102; with CCGGUUCACUGCUUGACCUTT against Wbp1, inactive: 0.87.
Next, GCCUUUAUAGGAUUUCAAATT against Ppp2r5e: inactive: 0.678; GGUAACGGGACCAACACUUTT against Otop3: inactive: 1.26; GGAUCUUUACUGCUUUGUGTT against Picalm: active: 2.42.
With GGACUUCAAGUACGUGCUGTT against P2ry2 the figure was inactive: 1.9.
In the case of GGCAGAGGAGUCCUGUAAATT against Kat2b, the z-score is inactive: -1.63.
As to CGCAGAACGUGAACACCAATT against Smad3, the z-score is active: -2.47.
With GGGCCACAAGCCUUCUAUUTT against Acvr2b the figure was inactive: -1.03.
In the case of CCAGACUUAUGACAACAAATT against Colec12, the z-score was inactive: 0.406.
With CGGGCUAUAUUACCUUGGCTT against Phf19 the figure was inactive: 0.0765; with GGACACCUCAUGAAGUAAUTT against Sav1, inactive: -0.04.
With CCUUCAUUCUCAUGUGACCTT against Psat1 the figure was inactive: -1.2; with CCCACUUACUUUUGAUGUUTT against Uba1, inactive: -0.232; with GGAGAAGCUCAUCUCUCUGTT against Rfx2, inactive: -1.35.
With CGAAAACUUCAUAGCUACATT against Hmg20a the figure was inactive: -1.95; with CCUUUUAGGCUUCCAGAAUTT against Mfsd10, inactive: -0.236; with GCAAUGAGUGCUAGUUUUUTT against Cdc42, active: 2.6.
On to GCCAUCAAUGAUGUGCUCUTT against Zswim5, for which the z-score was inactive: -0.186.
Next, GGAACCAGUAUCCUGACAUTT against Prop1: inactive: -0.592.
Next, GGAUUUAGGCUACUUUUUCTT against Art4: inactive: -0.387; GCCCUGGCAAAAGAUACCATT against Cidec: inactive: -0.323.
Next, GGCAACAGUACCAAAGACATT against Rps24: inactive: 0.483; “GGCUUUACGUGACAAAGAUTT against 4933430I17Rik”: inactive: 0.266; GGAAGAAAUACAGAAUAACTT against Npr3: inactive: 0.388.
For GGAUGAGGACGAGUUCGUUTT against Ppm1n, the z-score is inactive: 0.361.
On to CCUGAUAGGACCUAAUUGATT against Tom1, for which the z-score was inactive: -1.85.
Next, “GCUCAUGAUCAUAUCAUGATT against 1810055G02Rik”: inactive: 0.647; GAAGAUUAUCCAUUGCCCGTT against Lce1h: inactive: 0.689; GGAAUGCUUAGUGAAAUUUTT against Ahctf1: inactive: 0.481.
For GGCAGAAAGAUUAUGAGUUTT against Gpr171, the z-score is active: 2.35.
Next, GGGUCUCAAACUAAAUACUTT against Rangap1: inactive: 0.538; CCGAGGAUGGCCACAUAUGTT against Prss30: inactive: -0.0711.
With GCAGUUGAGUCCACCUCAATT against Ccdc187 the figure was active: 2.18; with GGCCUUUGUGUAUAUCUAUTT against Vmn1r85, inactive: 1.7; with GGAAGGAAGAGAAAAACAATT against Slu7, inactive: -0.188.
With GGGACUACCUCAUGUCAUUTT against Smad1 the figure was inactive: 0.632; with CCCAGGUUCCGGAGAACAATT against Abcc5, active: 2.14; with GGUUGACAUGAGUAACAUATT against Dlst, inactive: 0.588.
Turning to GGAUUUCAAAUCCUUCCUGTT against Shmt2, the z-score is inactive: 0.263.
Next, GCAGAGGAGUGAAUAGAUATT against Dtx3l: inactive: 0.45.
With UUCUACGUCUGUCUUCUUATT against Olfr180 the figure was inactive: -0.211; with GGAAGCUACAAAAAACCUCTT against Luzp1, inactive: 1.63.
GCGAAUGAUUGUCAGCAAATT against Gata1: the z-score was inactive: 0.304.
With GGGUAACUAGAAACAGACUTT against Olfr1351 the figure was inactive: -0.152; with GGAACUUCUCUGUUUUAGATT against Olfr802, inactive: -1.87.
As to GCAAUUGAAGCAAUUGACUTT against Otud6b, the z-score was inactive: -1.21.
For the sequence GGGUGUGCAUUUGUACUACTT against Smad9, the z-score is inactive: 1.21.
With GCUGCUAAGUGAAUCCAACTT against Ppfia3 the figure was inactive: 0.379; with “CCUUGCUCUGGCAAUCUGATT against G930045G22Rik”, inactive: 1.04.
Next, GGCUCUUAGGACGUGUAUATT against Med31: inactive: -0.411; GGUCAACUUUGGCCUCUAUTT against Gpr142: inactive: 0.469; GCUCCUAGUGUUUUUGUGGTT against Rplp0: active: -2.91.
Turning to GGAGCCAUUGUGAAUGUCUTT against Dcxr, the z-score was inactive: -0.893.
Next, GGUGGUCUUCAAGUCUGACTT against Cdcp2: inactive: 1.95; GCUACUCUUUGUCUCAUGUTT against Hexb: inactive: -0.826; GGAUUUUAGCUCUGAUUCATT against Thsd7b: inactive: 0.509.
On to GCUAGUUAUCUAAUCUCUGTT against Nuak1, for which the z-score was active: 2.79.
Turning to CCAAGUACAUACUUCUCAUTT against Tbx4, the z-score was inactive: -1.07.
With GCGCAUCCUAUUUUGAGAATT against Snx6 the figure was inactive: -0.78.
Turning to CCGGAAACUUCCUACGUGUTT against Cbln1, the z-score was inactive: -0.424.
With GGAGUUCCUAUGAUCAAAUTT against Sgf29 the figure was inactive: 0.509.
Next, CCCUAAGUAUAGGAUCGGATT against Macroh2a1: inactive: -1.07.
As to GCUGGAAUAUCAUUUCCCATT against Pdpk1, the z-score is inactive: -1.01.
Next, GCUAUUGGAGGAAUGUAUCTT against Rasgrp4: inactive: -1.51.
With GGAGAGACAGCAGUGAACATT against Dvl2 the figure was inactive: 0.43.
For the sequence CCAUUUCAAGCUCGAUAUGTT against Pde7b, the z-score was inactive: 0.441.
Next, GGCCAUCUUCCGAUUCUCUTT against Scn4a: inactive: -1.14; CCGGAUCCAGAAUACAUUATT against Aff3: inactive: 1.03.
Next, GCACGCGCACCUACAAAAUTT against Sostdc1: inactive: 0.552.
GCUAGGGAUUUACCUCUUCTT against Gpr65: the z-score was inactive: 0.743.
Regarding GUUGCCAGAUUUGGAUAUUTT against Abcg5, the z-score was inactive: 0.664.
With GAUGGGACAGUAAAACAAATT against Klra3 the figure was inactive: -0.981; with GGCCCAGAAGAUGAUGAGATT against Kcne1l, inactive: -0.412; with GCUGAAGUUACCAUAACCCTT against Cd84, inactive: 0.139.
Next, GGGUUGUCUUCAUCUACUUTT against Crhr1: active: 3.47.
With GGCAAGUUUGAGUUUUAGUTT against Zc3h12d the figure was inactive: 1.36; with GCCCAGAUACAACCAGACUTT against Ticam1, inactive: 1.46; with GGUUUAAGGUAGUUCAUGATT against Faf1, inactive: -0.0439.
Regarding GCGGAAUGUACCAAGACGATT against Apoh, the z-score was inactive: 0.222.
Next, CCAUACAGAGGUGACAGUUTT against Olfr816: inactive: -0.23.
Next, GGACUGAGAAAAUGUAUAUTT against Nek3: inactive: -0.968; GGAUUAGUGCAGGAAUCAATT against Rel: inactive: 0.922; GGGUAAAAGUUGAGUAAAATT against Ppp1r14c: inactive: -1.25.
Next, GGUCUCCAUAAGUGUCAGCTT against Cntfr: inactive: -0.407.
In the case of GGAAAAGAAAGUCUGCCAATT against Egfr, the z-score was inactive: 0.364.
Next, GCUCUAUGAACCAGCUUCATT against Plekha6: inactive: 0.272.
Next, CGGCGACAUUGUUUUGCUATT against Acvr2a: inactive: 1.19.
Take GGUCAUUCUUAAUUGUUCATT against Kpna6: the z-score is inactive: 0.939.
With CGCAUCAGUUUCUAUAAGATT against Rp1 the figure was inactive: 0.192.
Next, GGACUCUCCUAUGUUAUAGTT against Nphs2: inactive: 0.183; GGCAACAUGGUGAUCAUCGTT against Olfr323: inactive: -0.461; GGGCCCGAUAGAUAUAAACTT against B4galt5: inactive: 0.127.
With GGAGUCCUGAAGAAUAAAGTT against Tff3 the figure was inactive: -0.0657; with GCACUUGGGUAAAAAACUCTT against Bcorl1, inactive: 0.394; with AUCUAUUCGAAUCAGGAAGTT against Epsti1, inactive: -0.102.
Consider GGGAAAAAGCUAGAAAAAGTT against Gp1ba, for which the z-score is inactive: 0.412.
With CCUGAUGCACUACUCGUCUTT against Dmbx1 the figure was inactive: -0.131; with GGAGAAAGGAUCUCAGUGUTT against Miga1, inactive: -0.532.
With GGAAAAGACUAACGAGCGGTT against Med11 the figure was inactive: -0.703; with GGCUGUGGAUCUUCUCUGUTT against Cnksr3, inactive: -1.05; with GGUCUUUAUUUACCUCUUUTT against Cyp2c39, inactive: 0.659.
Next, GCAACGAAGUGAAUUUGUUTT against Epha5: inactive: -0.139; GAUAUAAUUACUGAACCACTT against Gm5128: inactive: -0.00502.
Take GGUUUGAGGCGAGCUAACUTT against Rph3a: the z-score was inactive: 0.244.
